This data set has as its system mSWI/SNF complexes. Put plainly: mSWI/SNF complex purification with HA-tagged baits and mass spectrometry (peptide counts). On the set-up: species or system human.
[1] abbreviates: 293_HA-BRD7 bait purification, mass spectrometry, total peptide count per identified protein.
[2] abbreviates: 293_HA-BRD7 bait purification, mass spectrometry, unique peptide count per identified protein.

B1: FKBP8 (protein, UniProt Q14318 1-412, looked up)
Peptidyl-prolyl cis-trans …: MASCAEPSEPSAPLPAGVPPLEDFEVLDGVEDAEGEEEEEEEEEEEDDLSELPPLEDMGQPPAEEAEQPGALAREFLAAMEPEPAPAPAPEEWLDILGNGLLRKKTLVPGPPGSSRPVKGQVVTVHLQTSLENGTRVQEEPELVFTLGDCDVIQALDLSVPLMDVGETAMVTADSKYCYGPQGRSPYIPPHAALCLEVTLKTAVDGPDLEMLTGQERVALANRKRECGNAHYQRADFVLAANSYDLAIKAITSSAKVDMTFEEEAQLLQLKVKCLNNLAASQLKLDHYRAALRSCSLVLEHQPDNIKALFRKGKVLAQQGEYSEAIPILRAALKLEPSNKTIHAELSKLVKKHAAQRSTETALYRKMLGNPSRLPAKCPGKGAWSIPWKWLFGATAVALGGVALSVVIAARN
As to B1, the Total under setting [1] was determined as 1. This molecule also displayed a Unique under setting [2] of 1.

B2: SLC1A3 (protein, UniProt P43003 1-542, looked up)
Excitatory amino acid …: MTKSNGEEPKMGGRMERFQQGVRKRTLLAKKKVQNITKEDVKSYLFRNAFVLLTVTAVIVGTILGFTLRPYRMSYREVKYFSFPGELLMRMLQMLVLPLIISSLVTGMAALDSKASGKMGMRAVVYYMTTTIIAVVIGIIIVIIIHPGKGTKENMHREGKIVRVTAADAFLDLIRNMFPPNLVEACFKQFKTNYEKRSFKVPIQANETLVGAVINNVSEAMETLTRITEELVPVPGSVNGVNALGLVVFSMCFGFVIGNMKEQGQALREFFDSLNEAIMRLVAVIMWYAPVGILFLIAGKIVEMEDMGVIGGQLAMYTVTVIVGLLIHAVIVLPLLYFLVTRKNPWVFIGGLLQALITALGTSSSSATLPITFKCLEENNGVDKRVTRFVLPVGATINMDGTALYEALAAIFIAQVNNFELNFGQIITISITATAASIGAAGIPQAGLVTMVIVLTSVGLPTDDITLIIAVDWFLDRLRTTTNVLGDSLGAGIVEHLSRHELKNRDVEMGNSVIEENEMKKPYQLIAQDNETEKPIDSETKM
Turning to B2, the Total under setting [1] was 1. Moreover, under setting [2], the Unique is listed as 1.

B3: DDX3Y (protein, UniProt O15523 2-660, looked up)
ATP-dependent RNA helicase …: SHVVVKNDPELDQQLANLDLNSEKQSGGASTASKGRYIPPHLRNREASKGFHDKDSSGWSCSKDKDAYSSFGSRDSRGKPGYFSERGSGSRGRFDDRGRSDYDGIGNRERPGFGRFERSGHSRWCDKSVEDDWSKPLPPSERLEQELFSGGNTGINFEKYDDIPVEATGSNCPPHIENFSDIDMGEIIMGNIELTRYTRPTPVQKHAIPIIKGKRDLMACAQTGSGKTAAFLLPILSQIYTDGPGEALKAVKENGRYGRRKQYPISLVLAPTRELAVQIYEEARKFSYRSRVRPCVVYGGADIGQQIRDLERGCHLLVATPGRLVDMMERGKIGLDFCKYLVLDEADRMLDMGFEPQIRRIVEQDTMPPKGVRHTMMFSATFPKEIQMLARDFLDEYIFLAVGRVGSTSENITQKVVWVEDLDKRSFLLDILGATGSDSLTLVFVETKKGADSLEDFLYHEGYACTSIHGDRSQRDREEALHQFRSGKSPILVATAVAARGLDISNVRHVINFDLPSDIEEYVHRIGRTGRVGNLGLATSFFNEKNMNITKDLLDLLVEAKQEVPSWLENMAYEHHYKGGSRGRSKSNRFSGGFGARDYRQSSGSSSSGFGASRGSSSRSGGGGYGNSRGFGGGGYGGFYNSDGYGGNYNSQGVDWWGN
In turn, B3 gave a Total under setting [1] of 1. In addition, the Unique under setting [2] worked out at 1.

B4: DDX50 (protein, UniProt Q9BQ39 1-737, looked up)
ATP-dependent RNA helicase …: MPGKLLWGDIMELEAPLEESESQKKERQKSDRRKSRHHYDSDEKSETRENGVTDDLDAPKAKKSKMKEKLNGDTEEGFNRLSDEFSKSHKSRRKDLPNGDIDEYEKKSKRVSSLDTSTHKSSDNKLEETLTREQKEGAFSNFPISEETIKLLKGRGVTYLFPIQVKTFGPVYEGKDLIAQARTGTGKTFSFAIPLIERLQRNQETIKKSRSPKVLVLAPTRELANQVAKDFKDITRKLSVACFYGGTSYQSQINHIRNGIDILVGTPGRIKDHLQSGRLDLSKLRHVVLDEVDQMLDLGFAEQVEDIIHESYKTDSEDNPQTLLFSATCPQWVYKVAKKYMKSRYEQVDLVGKMTQKAATTVEHLAIQCHWSQRPAVIGDVLQVYSGSEGRAIIFCETKKNVTEMAMNPHIKQNAQCLHGDIAQSQREITLKGFREGSFKVLVATNVAARGLDIPEVDLVIQSSPPQDVESYIHRSGRTGRAGRTGICICFYQPRERGQLRYVEQKAGITFKRVGVPSTMDLVKSKSMDAIRSLASVSYAAVDFFRPSAQRLIEEKGAVDALAAALAHISGASSFEPRSLITSDKGFVTMTLESLEEIQDVSCAWKELNRKLSSNAVSQITRMCLLKGNMGVCFDVPTTESERLQAEWHDSDWILSVPAKLPEIEEYYDGNTSSNSRQRSGWSSGRSGRSGRSGGRSGGRSGRQSRQGSRSGSRQDGRRRSGNRNRSRSGGHKRSFD
Turning to B4, the Total (293_HA-BRD7: HA-BRD7 bait purification, total peptide count per co-purified protein) is recorded as 13. This molecule also returned a Unique (293_HA-BRD7: HA-BRD7 bait purification, unique peptide count per co-purified protein) of 13.

B5: DDX19A (protein, UniProt Q9NUU7 2-478, looked up)
ATP-dependent RNA helicase …: ATDSWALAVDEQEAAVKSMTNLQIKEEKVKADTNGIIKTSTTAEKTDEEEKEDRAAQSLLNKLIRSNLVDNTNQVEVLQRDPNSPLYSVKSFEELRLKPQLLQGVYAMGFNRPSKIQENALPMMLAEPPQNLIAQSQSGTGKTAAFVLAMLSRVEPSDRYPQCLCLSPTYELALQTGKVIEQMGKFYPELKLAYAVRGNKLERGQKISEQIVIGTPGTVLDWCSKLKFIDPKKIKVFVLDEADVMIATQGHQDQSIRIQRMLPRNCQMLLFSATFEDSVWKFAQKVVPDPNVIKLKREEETLDTIKQYYVLCSSRDEKFQALCNLYGAITIAQAMIFCHTRKTASWLAAELSKEGHQVALLSGEMMVEQRAAVIERFREGKEKVLVTTNVCARGIDVEQVSVVINFDLPVDKDGNPDNETYLHRIGRTGRFGKRGLAVNMVDSKHSMNILNRIQEHFNKKIERLDTDDLDEIEKIAN
As for B5, the Total under setting [1] was 1. The molecule further had a Unique under setting [2] of 1.

B6: KRT78 (protein, UniProt Q8N1N4 1-520, looked up)
Keratin, type II cytoskeletal …: MSLSPCRAQRGFSARSACSARSRGRSRGGFSSRGGFSSRSLNSFGGCLEGSRGSTWGSGGRLGVRFGEWSGGPGLSLCPPGGIQEVTINQNLLTPLKIEIDPQFQVVRTQETQEIRTLNNQFASFIDKVRFLEQQNKVLETKWHLLQQQGLSGSQQGLEPVFEACLDQLRKQLEQLQGERGALDAELKACRDQEEEYKSKYEEEAHRRATLENDFVVLKKDVDGVFLSKMELEGKLEALREYLYFLKHLNEEELGQLQTQASDTSVVLSMDNNRYLDFSSIITEVRARYEEIARSSKAEAEALYQTKYQELQVSAQLHGDRMQETKVQISQLHQEIQRLQSQTENLKKQNASLQAAITDAEQRGELALKDAQAKVDELEAALRMAKQNLARLLCEYQELTSTKLSLDVEIATYRRLLEGEECRMSGECTSQVTISSVGGSAVMSGGVGGGLGSTCGLGSGKGSPGSCCTSIVTGGSNIILGSGKDPVLDSCSVSGSSAGSSCHTILKKTVESSLKTSITY
As to B6, the Total under setting [1] worked out at 1. For the same molecule, under setting [2], the Unique is reported as 1.

B7: RRP15 (protein, UniProt Q9Y3B9 2-282, looked up)
RRP15-like protein: AAAAPDSRVSEEENLKKTPKKKMKMVTGAVASVLEDEATDTSDSEGSCGSEKDHFYSDDDAIEADSEGDAEPCDKENENDGESSVGTNMGWADAMAKVLNKKTPESKPTILVKNKKLEKEKEKLKQERLEKIKQRDKRLEWEMMCRVKPDVVQDKETERNLQRIATRGVVQLFNAVQKHQKNVDEKVKEAGSSMRKRAKLISTVSKKDFISVLRGMDGSTNETASSRKKPKAKQTEVKSEEGPGWTILRDDFMMGASMKDWDKESDGPDDSRPESASDSDT
For the molecule B7, the Total under setting [1] was 1. The Unique under setting [2] turned out to be 1.

B8: BCAS2 (protein, UniProt O75934 2-225, looked up)
Pre-mRNA-splicing factor SPF27: AGTGLVAGEVVVDALPYFDQGYEAPGVREAAAALVEEETRRYRPTKNYLSYLTAPDYSAFETDIMRNEFERLAARQPIELLSMKRYELPAPSSGQKNDITAWQECVNNSMAQLEHQAVRIENLELMSQHGCNAWKVYNENLVHMIEHAQKELQKLRKHIQDLNWQRKNMQLTAGSKLREMESNWVSLVSKNYEIERTIVQLENEIYQIKQQHGEANKENIRQDF
In turn, B8 showed a Total under setting [1] of 1. Besides, the Unique under setting [2] amounted to 1.

B9: SCAF8 (protein, UniProt Q9UPN6 1-1271, looked up)
SR-related and CTD-associated …: MEAVKTFNSELYSLNDYKPPISKAKMTQITKAAIKAIKFYKHVVQSVEKFIQKCKPEYKVPGLYVIDSIVRQSRHQFGQEKDVFAPRFSNNIISTFQNLYRCPGDDKSKIVRVLNLWQKNNVFKSEIIQPLLDMAAGIPPPVVTPVLASTTTAMSNTPGTPVTPVTPANVVQGLPDPWVSQITNTDTLAAVAQILQSPQGQQLQQLIQTLQIQQQKPQPSILQALDAGLVVQLQALTAQLTAAAAAANTLTPLEQGVSFNKKLMDRFDFGEDSEHSEEPKKEIPASQLSHVSESVNNSIFHQIAEQLQQQNLEHLRQQLLEQQQPQKATPQDSQEGTFGSEHSASPSQGSSQQHFLEPEVNLDDSIDIQQQDMDIDEGQDGVEEEVFEQEAKKVAVRSRSRTHSRSRSRSPRKRRSRSRSGSRKRKHRKRSRSRSRERKRKSSRSYSSERRAREREKERQKKGLPPIRSKTLSVCSTTLWVGQVDKKATQQDLTNLFEEFGQIESINMIPPRGCAYVCMVHRQDAFRALQKLSSGSYKIGSKVIKIAWALNKGVKTEYKQFWDVDLGVTYIPWEKVKVDDLEGFAEGGMIDQETVNTEWETVKSSEPVKETVQTTQSPTPVEKETVVTTQAEVFPPPVAMLQIPVAPAVPTVSLVPPAFPVSMPVPPPGFSPIPPPPFLRASFNPSQPPPGFMPPPVPPPVVPPPTIPPVVPTSLVQPSLSMTPETVKDVGFGSLVIPGGSVASNLATSALPAGNVFNAPTKQAEPEEKVPHLIDHQISSGENTRSVIPNDISSNAAILGGQPPNVTSNSGILGVQRPNVSSNSEILGVRPSNVSSSSGIIAAQPPNILNNSGILGIQPPSVSNSSGLLGVLPPNIPNNSGLVGVQPPNVPNTPGLLGTQPPAGPQNLPPLSIPNQRMPTMPMLDIRPGLIPQAPGPRFPLIQPGIPPQRGIPPPSVLDSALHPPPRGPFPPGDIFSQPERPFLAPGRQSVDNVTNPEKRIPLGNDNIQQEGDRDYRFPPIETRESISRPPPVDVRDVVGRPIDPREGPGRPPLDGRDHFGRPPVDIRENLVRPGIDHLGRRDHFGFNPEKPWGHRGDFDEREHRVLPVYGGPKGLHEERGRFRSGNYRFDPRSGPWNRGFGQEVHRDFDDRRRPWERQRDRDDRDFDFCREMNGNRLGRDRIQNTWVPPPHARVFDYFEGATSQRKGDNVPQVNGENTERHAQPPPIPVQNDPELYEKLTSSNEINKEKSDTVADIESEPVVESTETEGT
B9 came in with a Total under setting [1] of 1. The Unique under setting [2] was 1.
